Earlier results as cited in patent US20210223230A1, “Neamine Compositions and Methods of Use Thereof” (President and Fellows of Harvard College, priority 2008, published 2021).
For at least one compound, name, drawing or mass did not settle the structure.

Tests used:
ANG = conditions: literature reports; cited from earlier work
angiogenesis = conditions: literature reports; cited from earlier work

NC[C@H]1O[C@H](O[C@H]2[C@H](O)[C@@H](O[C@H]3O[C@H](CO)[C@@H](O)[C@H](N)[C@H]3O)[C@H](N)C[C@@H]2N)[C@H](O)[C@@H](O)[C@@H]1O [kanamycin]
effect on nuclear translocation of ANG (ANG): do not block
anti-angiogenic activity (angiogenesis): not anti-angiogenic
